Experimental data taken from PubChem BioAssay AID588499 (NMMLSC, 2011).
About 610 (0.17%) of roughly 360,000 compounds were called active. The shares of active, inactive and inconclusive entries below differ from those in the screen. Rule as the data show it: active = inhibition above about 30%; inconclusive = no clear call, values can overlap the other calls; inactive = below that.

Tested on: Botulinum neurotoxin type A light chain protease (Clostridium botulinum A str. ATCC 3502)
Assay: blockers of BoNT/A LC substrate cleavage – biochemical, flow cytometry, MLPCN library, primary screen (AID 588499); also: plate controls were buffer without enzyme for full effect and enzyme alone for no effect
Conditions: multiplex microsphere protease substrate cleavage, at 10 µM, hits give high values

SMILES	inhibition
Cc1cc2cc(CNC(=O)C(C)Oc3ccccc3)ccc2n1C (centres undefined)	active: 90%
CCN(c1ccccc1)S(=O)(=O)c1cccc(C(=O)NCCOc2ccccc2OC)c1	inactive: -1.1%
Cn1c(=O)oc2cc(S(=O)(=O)Nc3ccc4c(c3)OCCO4)ccc21	inconclusive: -3.5%
CCc1cc2cc(C)ccc2nc1SCC(=O)N1CCN(C(=O)c2ccco2)CC1	inactive: 1.2%
O=C(Oc1c(Cl)cc(Cl)c2cccnc12)N1CCCCC1	inconclusive: -3.2%
C=C(C)C1CC=C(C)/C(=N/NC(=O)C2CC2c2ccccc2)C1 (centres undefined)	inactive: -0.6%
CCCC(C(=O)OCC)P(=O)(c1ccccc1)c1ccccc1 (centres undefined)	inconclusive: 1.5%
CC1(C)CC(=O)C(CCC(=O)c2ccccc2)C(C)(C)N1 (centres undefined)	inconclusive: 13.6%
CC(C)CC1C(=O)N(Cc2cn(CCC3OCCO3)nn2)CCS(=O)(=O)N1Cc1ccc(-c2ccc(F)nc2)cc1 (centres undefined)	inactive: -0.5%
Cn1c(=O)c2c(ncn2CC(=O)N/N=C/C=C/c2ccco2)n(C)c1=O	inconclusive: 14.9%
Cc1ccc(OCC(=O)OC2CCS(=O)(=O)C2)cc1 (centres undefined)	inconclusive: -0.5%
CCOC(=O)c1c(-c2ccc(C)o2)csc1NC(=O)CSc1nnc(C)s1	inconclusive: 2.5%
FC(F)(F)Oc1ccccc1-c1nnc(-c2cccc(C(F)(F)F)c2)o1	inconclusive: 22.3%
Cc1ccc2nc(SCC(=O)c3c(N)n(C)c(=O)n(C)c3=O)[nH]c2c1	inactive: 0.4%
Cc1nc(-c2c(C(=O)NNC(=O)Nc3c(C)cccc3C)noc2C)cs1	inconclusive: -11.4%
Cc1c(Br)c([N+](=O)[O-])nn1C(C)C(=O)N1CCCc2ccccc21 (centres undefined)	inconclusive: 0.3%
Cc1cc(C)n(-c2nc3ccccc3nc2N2CCN(S(=O)(=O)c3ccc4ccccc4c3)CC2)n1	active: 34.2%
CCCOc1ccc(/C(O)=C2/C(=O)C(=O)N(CCCn3ccnc3)C2c2ccc(C)o2)cc1 (centres undefined)	inconclusive: 27.9%
O=C1C2CC=C(Cl)CC2C(=O)N1CCC[n+]1ccccc1 (centres undefined)	inconclusive: 7.1%
O=S(=O)(Cc1ccc(Cl)cc1)N1CCN(Cc2ccc3c(c2)OCO3)CC1	inconclusive: 3.3%

SMILES	inhibition
CCOc1ccc2nc(NC(=O)CSc3nnnn3C3CCCCC3)sc2c1	inconclusive: -2.8%
FC(F)(F)c1nc(=S)c2ccccc2[nH]1	inactive: -0.4%
COc1ccccc1C1CCN(C(=O)c2cccc([N+](=O)[O-])c2)CC1	inconclusive: 0.5%
CCOc1ccc(C(=O)c2nc3c(n2O)CCCCC3)cc1	inactive: -0.1%
CC(C)c1ccc(NC(=O)COc2ccc(C3SCCS3)cc2)cc1	inconclusive: -9%
COCCNC(=O)CSc1nc2ccccc2c(=O)n1CCCC(=O)NCc1ccccc1	inconclusive: -0.5%
COc1ccccc1CC(=O)Nc1cc(Cl)ccc1O	inconclusive: 10.9%
CCCNC(=O)c1cccc(NC(=O)C(C)C)c1	inactive: -1.8%
Cn1nc(-c2ccc(S(N)(=O)=O)s2)cc1C(F)(F)F	inconclusive: 5.8%
Cc1nc2ccc(C(=O)Nc3cccc(OCC(=O)N(C)C)c3)cn2c1N(C)CC1CCCCC1	inactive: 0.2%
Cc1nn(CC(=O)OCC(=O)c2ccc(OC(F)F)cc2)c(C)c1[N+](=O)[O-]	inactive: 0.5%
CCOC(=O)C(Sc1ncn[nH]1)c1ccccc1 (centres undefined)	inconclusive: -1.4%
COc1cccc(SCC(=O)N2CCN(c3ccccc3)CC2)c1	inconclusive: -18.3%
Cc1cc(C)nc(Nc2n[nH]c(COc3ccccc3)n2)n1	inactive: -0.4%
COCCCN(C(=S)Nc1c(C)cc(C)cc1C)C(C)c1ccccn1 (centres undefined)	inactive: -1%
Cc1ccc(C(=O)NCCN(C)C)c(C)c1	inactive: 0.7%
COC(=O)COc1cccc(NC(=O)c2ccccc2)c1	inconclusive: -4.4%
CCOC(=O)C1CCN(C(=O)c2cccc(C(=O)N3CCC(C(=O)OCC)CC3)c2)CC1	inconclusive: -3.9%
Cc1cccnc1NC(=O)c1ccc2c(c1)OCO2	inconclusive: 3.3%
CC1CCCCC1NC(=O)COC(=O)CNC(=O)c1cccc(F)c1 (centres undefined)	inactive: -1.1%

SMILES	inhibition
Cn1cccc1/C=N/NC(=O)c1ccc[n+]([O-])c1	inactive: -0.5%
CCOC(=O)c1c(C)c(C(=O)NCc2cccnc2)c(C)n1CC	inconclusive: 3.9%
CCOC(=O)CSc1nnc(NC(=O)c2cccc(S(=O)(=O)N3CCCCC3)c2)s1	inconclusive: 2.3%
O=C(Nc1cccn2ncnc12)c1ccccc1	inactive: 3.1%
Cc1ccc2oc(=O)n(CC(=O)N3CCOCC3)c2c1	inconclusive: 4.3%
COc1ccc(Br)cc1CNCCc1ccc2c(c1)OCO2	inconclusive: -7%
COc1ccc(CNc2oc(C)nc2C#N)cc1	inconclusive: -1.3%
Cc1ccc2nc3c(cc2c1)c(NC(=O)c1ccco1)nn3CC(C)C	inconclusive: 11.3%
O=C(NCCN1CCOCC1)C(Sc1ccccc1)c1ccccc1 (centres undefined)	inconclusive: 4.2%
COc1cc(C2C(C#N)=C(N)Oc3cc(C)oc(=O)c32)cc(OC)c1OC (centres undefined)	inconclusive: 5.3%
COc1ccc(Nc2nc(N)nc(CN3CCOCC3)n2)cc1	inactive: 0%
CCCCn1c(N)c(N(CC(C)C)C(=O)c2ccc(Cl)c(S(=O)(=O)N3CCCC3)c2)c(=O)[nH]c1=O	inconclusive: 1.9%
O=C(NC1CCCCC1)C(c1ccccc1)N(Cc1cccnc1)C(=O)c1csnn1 (centres undefined)	inactive: -0.2%
CN1CCNC(=O)C1CC(=O)O (centres undefined)	inconclusive: 1.7%
COc1ccc(NC(=O)CSc2nc3ccccc3c(=O)n2CCNC(C)=O)c(OC)c1	inactive: -1.5%
CC(C)CC(N)c1csc(Nc2ncccn2)n1 (centres undefined)	inactive: 0%
c1ccc(-c2nc(-n3ccnc3)nc(-n3ccnc3)n2)cc1	inactive: 0.3%
Cc1cccc(C(C)C)c1NC(=O)C1CN(S(=O)(=O)c2ccccc2)CCN1S(=O)(=O)c1ccccc1 (centres undefined)	active: 38.4%
Nc1nc(Cn2nnc(-c3ccccc3Cl)n2)nc(N2CCOCC2)n1	inconclusive: -2%

Part of the list above, in CSV form.
SMILES,inhibition
Cc1cc2cc(CNC(=O)C(C)Oc3ccccc3)ccc2n1C (centres undefined),active: 90%
CCN(c1ccccc1)S(=O)(=O)c1cccc(C(=O)NCCOc2ccccc2OC)c1,inactive: -1.1%
Cn1c(=O)oc2cc(S(=O)(=O)Nc3ccc4c(c3)OCCO4)ccc21,inconclusive: -3.5%
C=C(C)C1CC=C(C)/C(=N/NC(=O)C2CC2c2ccccc2)C1 (centres undefined),inactive: -0.6%
CC1(C)CC(=O)C(CCC(=O)c2ccccc2)C(C)(C)N1 (centres undefined),inconclusive: 13.6%
FC(F)(F)Oc1ccccc1-c1nnc(-c2cccc(C(F)(F)F)c2)o1,inconclusive: 22.3%
Cc1nc(-c2c(C(=O)NNC(=O)Nc3c(C)cccc3C)noc2C)cs1,inconclusive: -11.4%
COc1ccccc1CC(=O)Nc1cc(Cl)ccc1O,inconclusive: 10.9%
Cc1nn(CC(=O)OCC(=O)c2ccc(OC(F)F)cc2)c(C)c1[N+](=O)[O-],inactive: 0.5%
Cc1cc(C)nc(Nc2n[nH]c(COc3ccccc3)n2)n1,inactive: -0.4%
Cc1cccnc1NC(=O)c1ccc2c(c1)OCO2,inconclusive: 3.3%
CCOC(=O)CSc1nnc(NC(=O)c2cccc(S(=O)(=O)N3CCCCC3)c2)s1,inconclusive: 2.3%
COc1ccc(CNc2oc(C)nc2C#N)cc1,inconclusive: -1.3%
CCCCn1c(N)c(N(CC(C)C)C(=O)c2ccc(Cl)c(S(=O)(=O)N3CCCC3)c2)c(=O)[nH]c1=O,inconclusive: 1.9%
Cc1cccc(C(C)C)c1NC(=O)C1CN(S(=O)(=O)c2ccccc2)CCN1S(=O)(=O)c1ccccc1 (centres undefined),active: 38.4%
